Source: the supplement of paper PMC11006884
The entries are a selection whose mix differs from that of the whole data set.

Amino acid sequences for entries named in this document (tags omitted). A change or cut given only in a name is not applied to a line headed by its entry.
UniProt P00390: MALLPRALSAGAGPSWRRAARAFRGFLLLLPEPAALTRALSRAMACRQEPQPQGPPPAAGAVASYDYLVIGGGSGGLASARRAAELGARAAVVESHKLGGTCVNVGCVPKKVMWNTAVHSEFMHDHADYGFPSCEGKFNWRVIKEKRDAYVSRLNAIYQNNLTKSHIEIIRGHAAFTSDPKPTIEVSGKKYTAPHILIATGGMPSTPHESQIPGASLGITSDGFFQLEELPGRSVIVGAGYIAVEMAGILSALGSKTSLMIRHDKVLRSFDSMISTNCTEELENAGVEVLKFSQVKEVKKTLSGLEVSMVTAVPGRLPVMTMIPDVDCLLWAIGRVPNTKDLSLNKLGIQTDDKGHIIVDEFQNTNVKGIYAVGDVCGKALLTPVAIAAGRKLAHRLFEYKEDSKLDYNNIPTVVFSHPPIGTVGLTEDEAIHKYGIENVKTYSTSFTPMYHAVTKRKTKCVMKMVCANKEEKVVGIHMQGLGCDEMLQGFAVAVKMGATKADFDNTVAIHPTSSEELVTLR
UniProt O95573: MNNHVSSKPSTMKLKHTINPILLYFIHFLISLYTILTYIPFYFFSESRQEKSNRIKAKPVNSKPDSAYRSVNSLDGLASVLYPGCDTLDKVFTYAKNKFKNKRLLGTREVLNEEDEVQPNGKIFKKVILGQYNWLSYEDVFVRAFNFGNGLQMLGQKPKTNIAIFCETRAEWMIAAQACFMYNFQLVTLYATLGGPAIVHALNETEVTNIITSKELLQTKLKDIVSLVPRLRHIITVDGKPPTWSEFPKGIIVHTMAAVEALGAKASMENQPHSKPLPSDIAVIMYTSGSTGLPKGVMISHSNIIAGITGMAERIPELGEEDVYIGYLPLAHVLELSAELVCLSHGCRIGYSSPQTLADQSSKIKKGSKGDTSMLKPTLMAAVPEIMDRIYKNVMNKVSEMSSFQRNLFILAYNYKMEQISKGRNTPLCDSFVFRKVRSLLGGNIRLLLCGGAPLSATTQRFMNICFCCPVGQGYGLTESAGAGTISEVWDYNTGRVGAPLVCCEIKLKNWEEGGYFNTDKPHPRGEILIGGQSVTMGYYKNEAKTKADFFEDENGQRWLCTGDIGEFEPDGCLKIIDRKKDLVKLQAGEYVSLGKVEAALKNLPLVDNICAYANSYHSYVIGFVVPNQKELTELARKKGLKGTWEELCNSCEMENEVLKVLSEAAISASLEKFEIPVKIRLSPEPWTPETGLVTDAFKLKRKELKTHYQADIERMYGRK
UniProt O94906: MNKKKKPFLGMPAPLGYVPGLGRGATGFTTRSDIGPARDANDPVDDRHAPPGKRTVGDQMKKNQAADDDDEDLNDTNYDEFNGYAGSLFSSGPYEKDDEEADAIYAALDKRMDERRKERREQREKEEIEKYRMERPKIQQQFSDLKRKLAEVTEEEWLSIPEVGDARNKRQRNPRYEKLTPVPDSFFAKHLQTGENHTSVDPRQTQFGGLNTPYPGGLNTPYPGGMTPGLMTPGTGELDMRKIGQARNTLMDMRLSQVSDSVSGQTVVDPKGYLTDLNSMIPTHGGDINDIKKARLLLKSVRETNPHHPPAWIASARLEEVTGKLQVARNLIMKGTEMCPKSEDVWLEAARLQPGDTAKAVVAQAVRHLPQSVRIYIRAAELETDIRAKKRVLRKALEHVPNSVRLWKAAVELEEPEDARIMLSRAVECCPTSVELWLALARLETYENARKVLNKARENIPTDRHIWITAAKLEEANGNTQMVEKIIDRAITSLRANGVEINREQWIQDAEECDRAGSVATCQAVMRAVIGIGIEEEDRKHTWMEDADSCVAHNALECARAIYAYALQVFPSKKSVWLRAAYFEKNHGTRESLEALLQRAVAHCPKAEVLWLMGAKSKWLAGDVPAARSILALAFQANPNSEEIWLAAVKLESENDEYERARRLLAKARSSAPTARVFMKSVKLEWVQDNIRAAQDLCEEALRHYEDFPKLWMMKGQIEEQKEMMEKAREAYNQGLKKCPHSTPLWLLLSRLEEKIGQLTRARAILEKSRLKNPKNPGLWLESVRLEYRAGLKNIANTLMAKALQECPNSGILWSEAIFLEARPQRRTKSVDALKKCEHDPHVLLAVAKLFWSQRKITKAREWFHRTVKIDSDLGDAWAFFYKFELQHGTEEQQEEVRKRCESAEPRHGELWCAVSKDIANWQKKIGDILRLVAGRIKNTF
UniProt P04075: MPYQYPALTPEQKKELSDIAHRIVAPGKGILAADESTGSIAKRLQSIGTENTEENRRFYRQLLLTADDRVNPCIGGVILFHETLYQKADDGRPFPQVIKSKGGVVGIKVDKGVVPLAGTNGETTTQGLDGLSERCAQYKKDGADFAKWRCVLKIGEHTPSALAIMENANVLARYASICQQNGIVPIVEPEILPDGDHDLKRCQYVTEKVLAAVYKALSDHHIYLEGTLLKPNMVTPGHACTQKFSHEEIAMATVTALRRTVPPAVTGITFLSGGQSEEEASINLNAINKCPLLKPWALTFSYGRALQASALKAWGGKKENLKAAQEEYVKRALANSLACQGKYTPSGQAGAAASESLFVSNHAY
UniProt O95352: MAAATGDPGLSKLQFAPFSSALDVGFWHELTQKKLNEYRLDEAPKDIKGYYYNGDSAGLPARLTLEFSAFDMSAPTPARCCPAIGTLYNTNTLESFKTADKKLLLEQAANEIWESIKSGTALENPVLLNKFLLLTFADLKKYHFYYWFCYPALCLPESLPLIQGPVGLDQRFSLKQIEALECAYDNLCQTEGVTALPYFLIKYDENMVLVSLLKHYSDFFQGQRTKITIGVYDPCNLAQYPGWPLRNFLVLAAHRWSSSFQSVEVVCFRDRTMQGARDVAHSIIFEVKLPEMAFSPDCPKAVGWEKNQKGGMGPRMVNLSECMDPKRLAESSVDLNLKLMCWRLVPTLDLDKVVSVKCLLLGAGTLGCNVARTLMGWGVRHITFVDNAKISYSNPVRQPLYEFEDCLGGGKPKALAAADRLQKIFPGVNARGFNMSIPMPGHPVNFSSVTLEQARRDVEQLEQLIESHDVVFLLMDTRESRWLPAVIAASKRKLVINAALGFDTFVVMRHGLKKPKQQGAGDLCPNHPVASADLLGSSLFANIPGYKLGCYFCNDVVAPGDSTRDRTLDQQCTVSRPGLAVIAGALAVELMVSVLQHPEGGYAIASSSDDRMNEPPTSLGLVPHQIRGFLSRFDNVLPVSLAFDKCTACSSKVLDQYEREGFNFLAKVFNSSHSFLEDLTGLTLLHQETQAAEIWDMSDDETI
UniProt P05455: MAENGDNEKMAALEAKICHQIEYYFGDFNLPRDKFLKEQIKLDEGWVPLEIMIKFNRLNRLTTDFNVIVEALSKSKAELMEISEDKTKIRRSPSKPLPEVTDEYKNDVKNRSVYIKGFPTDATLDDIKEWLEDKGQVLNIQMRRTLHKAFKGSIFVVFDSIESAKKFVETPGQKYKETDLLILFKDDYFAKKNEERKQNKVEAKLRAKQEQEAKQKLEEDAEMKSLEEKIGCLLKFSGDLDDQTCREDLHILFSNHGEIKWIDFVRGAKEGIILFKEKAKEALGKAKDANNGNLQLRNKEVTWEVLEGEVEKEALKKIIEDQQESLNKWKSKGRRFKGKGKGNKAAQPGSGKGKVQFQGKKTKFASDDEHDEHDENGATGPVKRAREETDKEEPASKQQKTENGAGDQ
UniProt P07355, whole entry, looked up: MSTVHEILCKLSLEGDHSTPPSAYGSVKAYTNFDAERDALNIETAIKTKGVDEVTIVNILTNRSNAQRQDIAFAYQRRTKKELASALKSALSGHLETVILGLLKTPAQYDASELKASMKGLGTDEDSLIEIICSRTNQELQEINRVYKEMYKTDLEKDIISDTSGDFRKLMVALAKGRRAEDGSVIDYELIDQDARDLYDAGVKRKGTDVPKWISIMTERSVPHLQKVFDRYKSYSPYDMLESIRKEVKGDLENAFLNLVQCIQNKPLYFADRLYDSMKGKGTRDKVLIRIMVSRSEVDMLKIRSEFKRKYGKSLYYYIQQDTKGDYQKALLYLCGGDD
UniProt P07814: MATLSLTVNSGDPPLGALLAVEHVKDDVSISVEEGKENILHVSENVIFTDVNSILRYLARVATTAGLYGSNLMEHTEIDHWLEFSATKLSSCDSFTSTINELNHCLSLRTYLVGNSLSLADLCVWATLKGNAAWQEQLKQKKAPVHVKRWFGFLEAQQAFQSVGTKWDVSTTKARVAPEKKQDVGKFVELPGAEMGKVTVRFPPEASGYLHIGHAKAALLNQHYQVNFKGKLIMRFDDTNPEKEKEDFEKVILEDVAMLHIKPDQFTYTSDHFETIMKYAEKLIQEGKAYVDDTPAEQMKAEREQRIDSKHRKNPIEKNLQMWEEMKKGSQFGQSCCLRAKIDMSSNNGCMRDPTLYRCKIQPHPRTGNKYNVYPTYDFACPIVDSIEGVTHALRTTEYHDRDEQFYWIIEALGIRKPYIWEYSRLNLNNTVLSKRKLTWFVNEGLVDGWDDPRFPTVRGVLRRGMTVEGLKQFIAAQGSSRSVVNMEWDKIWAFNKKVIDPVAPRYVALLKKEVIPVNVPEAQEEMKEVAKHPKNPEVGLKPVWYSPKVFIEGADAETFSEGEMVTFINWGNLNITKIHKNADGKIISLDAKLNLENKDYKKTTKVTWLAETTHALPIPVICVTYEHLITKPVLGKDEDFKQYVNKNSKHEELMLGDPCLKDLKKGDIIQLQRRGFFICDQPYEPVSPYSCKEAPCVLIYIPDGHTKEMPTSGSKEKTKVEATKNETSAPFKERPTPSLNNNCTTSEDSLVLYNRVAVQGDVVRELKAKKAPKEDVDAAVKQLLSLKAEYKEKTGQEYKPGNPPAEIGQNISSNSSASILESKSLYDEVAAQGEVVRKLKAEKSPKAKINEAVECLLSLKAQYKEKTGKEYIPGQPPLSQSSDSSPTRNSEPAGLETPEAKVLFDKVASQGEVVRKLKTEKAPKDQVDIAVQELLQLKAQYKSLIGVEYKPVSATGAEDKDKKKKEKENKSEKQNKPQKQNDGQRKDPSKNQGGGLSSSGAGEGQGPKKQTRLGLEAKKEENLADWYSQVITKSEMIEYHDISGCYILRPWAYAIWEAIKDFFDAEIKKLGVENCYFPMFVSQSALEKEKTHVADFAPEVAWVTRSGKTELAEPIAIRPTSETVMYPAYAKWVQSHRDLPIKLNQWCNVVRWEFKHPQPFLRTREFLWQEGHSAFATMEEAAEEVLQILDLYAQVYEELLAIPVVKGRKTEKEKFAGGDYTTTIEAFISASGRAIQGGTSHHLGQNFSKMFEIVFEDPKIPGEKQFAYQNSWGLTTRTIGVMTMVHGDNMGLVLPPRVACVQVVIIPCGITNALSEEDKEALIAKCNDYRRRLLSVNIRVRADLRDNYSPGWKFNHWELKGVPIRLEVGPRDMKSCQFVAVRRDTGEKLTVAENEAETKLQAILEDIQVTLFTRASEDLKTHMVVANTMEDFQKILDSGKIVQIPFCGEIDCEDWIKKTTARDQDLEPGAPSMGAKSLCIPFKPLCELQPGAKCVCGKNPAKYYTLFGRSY
UniProt O95685: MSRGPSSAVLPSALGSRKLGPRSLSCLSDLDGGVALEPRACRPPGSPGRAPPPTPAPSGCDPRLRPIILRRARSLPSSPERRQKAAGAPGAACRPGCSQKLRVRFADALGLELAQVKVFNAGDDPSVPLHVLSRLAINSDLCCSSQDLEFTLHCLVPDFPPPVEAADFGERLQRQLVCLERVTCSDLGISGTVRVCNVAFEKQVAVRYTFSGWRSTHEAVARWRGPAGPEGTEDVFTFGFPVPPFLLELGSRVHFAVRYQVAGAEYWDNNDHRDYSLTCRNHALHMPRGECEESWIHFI
UniProt O94925: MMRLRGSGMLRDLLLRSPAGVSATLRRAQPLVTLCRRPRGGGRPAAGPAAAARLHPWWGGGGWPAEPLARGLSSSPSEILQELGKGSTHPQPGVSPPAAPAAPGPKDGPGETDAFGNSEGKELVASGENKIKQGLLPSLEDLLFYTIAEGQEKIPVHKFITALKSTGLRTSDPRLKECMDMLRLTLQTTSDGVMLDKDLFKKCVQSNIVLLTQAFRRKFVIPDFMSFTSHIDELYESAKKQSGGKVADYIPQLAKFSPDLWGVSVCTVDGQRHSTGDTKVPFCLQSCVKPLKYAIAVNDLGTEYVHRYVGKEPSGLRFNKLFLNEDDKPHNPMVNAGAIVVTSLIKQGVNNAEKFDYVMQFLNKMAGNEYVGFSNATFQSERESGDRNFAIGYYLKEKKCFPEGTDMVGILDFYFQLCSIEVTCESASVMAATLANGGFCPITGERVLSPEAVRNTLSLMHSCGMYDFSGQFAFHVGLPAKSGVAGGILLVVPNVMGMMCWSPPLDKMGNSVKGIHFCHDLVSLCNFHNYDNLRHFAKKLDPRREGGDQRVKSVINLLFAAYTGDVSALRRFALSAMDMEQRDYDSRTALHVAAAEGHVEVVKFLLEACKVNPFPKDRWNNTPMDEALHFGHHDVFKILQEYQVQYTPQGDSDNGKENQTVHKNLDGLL

compound: COC(=O)C#Cc1ccccc1 [methyl 3-phenylpropiolate]; assay: log2 ratio of iodoacetamide-alkyne labeling of the cysteine site, DMSO over compound (competition); higher = stronger covalent engagement of the cysteine by the compound, active = 1 or more; settings: 500 µM; treatment time 1 h; system: HEK293T cell lysate
In short: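 After 1 h at ambient temperature with vehicle or electrophile (500 µM), HEK293T lysate (2 mg/mL) was labelled for 1 h with iodoacetamide alkyne and clicked to sCIP-TMT reagents. Pooled samples were trypsin-digested overnight at 37 °C, streptavidin-enriched, acid-eluted and analysed by Orbitrap Eclipse LC-MS/MS with FAIMS, then quantified in FragPipe over three replicates with duplicate channels. A cysteine's log2 competition ratio is its mean control-channel over mean compound-channel reporter intensity. Cysteines quantified in only one replicate were not included.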

log2 ratio of iodoacetamide-alkyne labeling, inactive:
GSR C107 (UniProt P00390) 0.154
UniProt O94822_C186 -0.317
RPLP0 C119 (UniProt P05388) 0.471
PAK4 C276 (UniProt O96013) 0.284
MBD3 C172 (UniProt O95983) 0.114
ENO1 C337 (UniProt P06733) 0.17
UniProt O94822_C237 0.172
ACSL3 C561 (UniProt O95573) 0.0916
PYGL C581 (UniProt P06737) -0.0352
GOT2 C382 (UniProt P00505) 0.0137
SLC25A5 C160 (UniProt P05141) 0.177
PRPF6 C558 (UniProt O94906) 0.0878
ENO1 C339 (UniProt P06733) -0.315
PSMG1 C14 (UniProt O95456) 0.373
PFN1 C17 (UniProt P07737) -0.417
SVIL C26 (UniProt O95425) 0.503
UBE4B C448 (UniProt O95155) 0.116
LDHB C294 (UniProt P07195) -0.0731
RPLP0 C27 (UniProt P05388) 0.649
HPRT1 C106 (UniProt P00492) 0.279
PRPF6 C837 (UniProt O94906) -0.091
ALDOA C202 (UniProt P04075) -0.0261
GPX1 C202 (UniProt P07203) 0.00172
TYMS C195 (UniProt P04818) -0.104
ATG7 C524 (UniProt O95352) 0.318
SSB C245 (UniProt P05455) 0.0576
GSR C102 (UniProt P00390) 0.154
UniProt O94953_C971 0.337
HSPA4L C421 (UniProt O95757) -0.0563
ANXA2 C133 (UniProt P07355) 0.123
EPRS C1487 (UniProt P07814) 0.0745
PPP1R3D C26 (UniProt O95685) 0.305
GLS C203 (UniProt O94925) 0.391
LDHA C293 (UniProt P00338) -0.149
ALDH2 C179 (UniProt P05091) 0.688
SVIL C671 (UniProt O95425) 0.341
UniProt O96028_C1324 0.369

No new results follow: an excerpt of the list.
log2 ratio of iodoacetamide-alkyne labeling, inactive:
ATG7 C524 (UniProt O95352) 0.318
SSB C245 (UniProt P05455) 0.0576
